From US11168052B2, “Carbamate derivative compounds, processes for preparing them and their uses” (BIO-PHARM SOLUTIONS CO., LTD., priority 2016, dated 2021)

Experiments:
[1] = test system: Lithium-pilocarpine induced seizure in rats; experiment: Lithium-pilocarpine induced epilepsy test (LI-PILO), prevention test; assay type: in vivo, Sprague-Dawley rats; conditions: i.p.
Procedure: Male Sprague-Dawley rats (purchased from Orient Bio Inc. Korea) of body weight 175 grams were used for these studies and 3 rats per cage were housed for 4-5 days. On the day prior to SE, rats received 127 mg/kg lithium chloride (Sigma, St. Louis, Mo., U.S.A.) intraperitoneally (i.p.). Approximately 18-20 h following this treatment, rats were given an i.p. injection of the concentration capable of inducing 97% intermittent convulsions pilocarpine(Sigma, 30-43 mg/kg). An i.p. injection of 2 mg/kg methyl-scopolamine (Sigma) was administered 30 min prior to pilocarpine to block the effects of the muscarinic agonist on peripheral cholinergic receptors. Test drugs were dissolved in 20% tween80 (Sigma).
The drugs were administered intraperitoneally (i.p.) in a volume of 2 μl/g body weight. Pharmacological effects of all of the test materials were evaluated to compare test groups (n=6) with a control group (n=6). Control group was administered vehicle only. The efficacy was measured 0.5, 1, 2, or 4 hours after the administration of the test material. The time point that the most animals were protected was defined as peak time and the ED50 was determined at peak time. The animals were then transferred to observation cages and observed continuously for 90 min Seizure was elicited in approximately 95% of the control group. Protection was defined as complete absence of seizure grade 3-5 (Racine scale; Racine, 1972) over the 90-min observation period. The effective dose of the compound necessary to protect 50% of the animals against seizures compared to controls (i.e., ED50) was determined by a curve fitting program (Excel 2007, Microsoft).

[2] = test system: CFA-induced pain model in rats; experiment: Antiallodynic activity on Complete Freund's Adjuvant (CFA)-induced inflammatory pain model; assay type: in vivo, Sprague-Dawley rats; conditions: intraperitoneally
Procedure: Male, Sprague-Dawley rats (210-250 g, Nara Bio, Korea) were habituated for 1 week before surgery and allowed free access to food and water throughout the experimentation. Room temperature and humidity were maintained at 24±2 and 50±10%, respectively.
CFA-induced inflammatory pain was induced by the procedure of Nagakura et al. (2003) and Gregory P. et al. (2010) with minor modifications. CFA (sigma, USA) was injected in the right plantar with a 100 ul volume under gaseous anesthesia with isoflurane. Sham controls were injected with 100 ul of saline, and preparation of the vehicle controls were identical to the group treated with compound, except for administration of vehicles without indentical to the vihecle control group.
Tactile sensitivity (Mechanical allodynia) was evaluated using von Frey monofilaments before and after treatment, and animals were include in the study only if the withdrawal threshold value was less than 4 g. One week after CFA injection, CFA-infused animals, sham-operated animal, and vehicle-operated animals were tested for tactile sensitivity with von Frey monofilaments, with 3 trials for each animal. All Animals were placed in a stainless steel mashe chamber and habituated for 30 min in the test cage. The tactile sensitivity for ipsilateral hind paw was measured using the up-and-down method (Dixon, 1980) with seven von Frey monofilaments (0.4, 1, 2, 4, 6, 8, and 15 g) to 3 trials. The tactile sensitivity test was followed by Dixon's method (Dixon, 1980). The 50% paw withdrawal threshold for each paw was calculated using the following formula: [Xth]log=[vFr]log+ky where [vFr] is the force of the last von Frey used, k=0.2249 which is the average interval (in log units) between the von Frey monofilaments, and y is a value that depends upon the pattern of withdrawal responses (Dixon, 1980).
Antiallodynic effect of compounds was evaluated at the dose of 50 mg/kg (n=4-6), intraperitoneally administrated in a volume of 5 ul/g bw in a vehicle of 30% (v/v) PEG or 20% (v/v) Tween 80. The test was performed peak time of efficacy (0.5 hr) after compound administration.
The relative values compared to the sham (% control) were calculated and shown in Table 5, which show an antiallodynic effect of Compound 1 on CFA-induced pain model in rats.

[3] = test system: Picrotoxin (PIC)-induced clonic seizure in mice; experiment: Chemical induced seizure model (PIC); assay type: in vivo, ICR mice
Procedure: Picrotoxin (PIC) were used to induce the behavioral seizures in the experiments. Male ICR mice (purchased from Orient Bio Inc. Korea) of body weight 19-26 g (mice) were used for these studies. The test materials were administered intraperitoneal (ip) route in a volume of 10 ul/g (mice) weight in rats or mice, respectively. Pharmacological effects of the test materials were evaluated to compared test groups (n=6) with a control group (n=6). Control group was administrated vehicle, only. The peak time was determined by administration of test material's random dose for 0.5, 1, 2, 4 hour. The time that the most protect was defined as a peak time and ED50 was determined by other dose administration at the peak time. Chemical (PIC) was dissolved in 0.9% saline and administered subcutaneously (s.c.) at its CD97 (convulsive dose 97%), the dose of Chemical (PIC) that produced clonic seizures in 97% into a loose fold of skin in the midline of the neck in a volume of 10 ul/g (mice) body weight. The animals were then transferred to observation cages and observed continuously for 45 min. Clonic seizure was elicited in approximately 97% of control group. Protection was defined as a complete absence of clonic seizure over the 45-min observation period. The effective dose of compound necessary to protect against generalized convulsive seizures to 50% of controls (i.e., ED50) was determined by log probit analysis using SPSS software program (SPSS Inc.). (Reference; White H. S., J. H. Woodhead, K. S. Wilcox, J. P. Stables, H. J. Kupferberg, and H. H. Wolf. General Principles; Discovery and Preclinical Development of Antiepileptic Drugs. In: R. H. Levy, R. H. Mattson, B. S. Meldrum, and E. Perucca, eds. Antiepileptic Drugs, 5th Ed. Lippincott Williams & Wilkins, Philadelphia 2002: pp. 36-48.) The obtained results are shown in following Table 10.

[4] = test system: MES (electroshock) seizure in rats; experiment: Anti-epilepsy activity, MES test in rats; assay type: in vivo, SD rats
Procedure: In the MES test (Ref., G. Villetti et al. Neuropharmacology 40(2001) 866-878), an electrical stimulus (mice: 50 mA, 60 Hz, 0.2 sec, and rats: 150 mA, 60 Hz, 0.2 sec in the test animal) supplied by an 11A Shocker (IITC Life Science Company) was delivered through corneal electrodes. All mice or rats assigned to any electroshock at peak time were treated with each test compound sample which was dissolved in 20% tween 80 prepared by saline solvent applied orally before the test. […] Three doses of the test sample were administered orally to 9-18 animals (3-6 mice per dose) for evaluating the respective doses at which 50% of the animals were protected from seizure (ED50). The ED50 value (median effective dose) was calculated by Litchfield and Wicoxon log-probit method which is a dose-response relationship. Experimental animals, male ICR mice and male SD rats, were purchased from OrientBio, Samtako, or Nara Biotech, Korea, and housed in cages (4-5 mice or 3 rats per cage) for 4-5 days. The range of mice body weight was between 19 and 25 grams and range of rats body weight was between 100 and 130 grams.

| SMILES | Lithium pilocarpine model (pre) peak time [1] [h] | CFA model Peak Time [2] [h] | PIC(ip) Peak Time [3] [h] | MES test (po) Peak time [4] [h] |
| --- | --- | --- | --- | --- |
| NC(=O)O[C@@H]1CCc2cccc(Cl)c2[C@@H]1O [Example 1, (1S, 2R)-8-chloro-1-hydroxy-1,2,3,4-tetrahydronaphthalen-2-yl carbamate] | 1 | 0.5 | 2 | 1 |
| NC(=O)O[C@@H]1c2c(Cl)cccc2CC[C@@H]1O [Example 19, (1R, 2S)-8-chloro-2-hydroxy-1,2,3,4-tetrahydronaphthalen-1-yl carbamate] | 0.5 | 0.5 | 2 | 2 |
